In the supplement of paper PMC10849652:
Some of the results follow.

Protein sequences, listed by entry. Tags and fused reporters are not part of them. Lines headed by an entry give the natural chain unless they say otherwise; changes in a name come on top.
UniProt P52948: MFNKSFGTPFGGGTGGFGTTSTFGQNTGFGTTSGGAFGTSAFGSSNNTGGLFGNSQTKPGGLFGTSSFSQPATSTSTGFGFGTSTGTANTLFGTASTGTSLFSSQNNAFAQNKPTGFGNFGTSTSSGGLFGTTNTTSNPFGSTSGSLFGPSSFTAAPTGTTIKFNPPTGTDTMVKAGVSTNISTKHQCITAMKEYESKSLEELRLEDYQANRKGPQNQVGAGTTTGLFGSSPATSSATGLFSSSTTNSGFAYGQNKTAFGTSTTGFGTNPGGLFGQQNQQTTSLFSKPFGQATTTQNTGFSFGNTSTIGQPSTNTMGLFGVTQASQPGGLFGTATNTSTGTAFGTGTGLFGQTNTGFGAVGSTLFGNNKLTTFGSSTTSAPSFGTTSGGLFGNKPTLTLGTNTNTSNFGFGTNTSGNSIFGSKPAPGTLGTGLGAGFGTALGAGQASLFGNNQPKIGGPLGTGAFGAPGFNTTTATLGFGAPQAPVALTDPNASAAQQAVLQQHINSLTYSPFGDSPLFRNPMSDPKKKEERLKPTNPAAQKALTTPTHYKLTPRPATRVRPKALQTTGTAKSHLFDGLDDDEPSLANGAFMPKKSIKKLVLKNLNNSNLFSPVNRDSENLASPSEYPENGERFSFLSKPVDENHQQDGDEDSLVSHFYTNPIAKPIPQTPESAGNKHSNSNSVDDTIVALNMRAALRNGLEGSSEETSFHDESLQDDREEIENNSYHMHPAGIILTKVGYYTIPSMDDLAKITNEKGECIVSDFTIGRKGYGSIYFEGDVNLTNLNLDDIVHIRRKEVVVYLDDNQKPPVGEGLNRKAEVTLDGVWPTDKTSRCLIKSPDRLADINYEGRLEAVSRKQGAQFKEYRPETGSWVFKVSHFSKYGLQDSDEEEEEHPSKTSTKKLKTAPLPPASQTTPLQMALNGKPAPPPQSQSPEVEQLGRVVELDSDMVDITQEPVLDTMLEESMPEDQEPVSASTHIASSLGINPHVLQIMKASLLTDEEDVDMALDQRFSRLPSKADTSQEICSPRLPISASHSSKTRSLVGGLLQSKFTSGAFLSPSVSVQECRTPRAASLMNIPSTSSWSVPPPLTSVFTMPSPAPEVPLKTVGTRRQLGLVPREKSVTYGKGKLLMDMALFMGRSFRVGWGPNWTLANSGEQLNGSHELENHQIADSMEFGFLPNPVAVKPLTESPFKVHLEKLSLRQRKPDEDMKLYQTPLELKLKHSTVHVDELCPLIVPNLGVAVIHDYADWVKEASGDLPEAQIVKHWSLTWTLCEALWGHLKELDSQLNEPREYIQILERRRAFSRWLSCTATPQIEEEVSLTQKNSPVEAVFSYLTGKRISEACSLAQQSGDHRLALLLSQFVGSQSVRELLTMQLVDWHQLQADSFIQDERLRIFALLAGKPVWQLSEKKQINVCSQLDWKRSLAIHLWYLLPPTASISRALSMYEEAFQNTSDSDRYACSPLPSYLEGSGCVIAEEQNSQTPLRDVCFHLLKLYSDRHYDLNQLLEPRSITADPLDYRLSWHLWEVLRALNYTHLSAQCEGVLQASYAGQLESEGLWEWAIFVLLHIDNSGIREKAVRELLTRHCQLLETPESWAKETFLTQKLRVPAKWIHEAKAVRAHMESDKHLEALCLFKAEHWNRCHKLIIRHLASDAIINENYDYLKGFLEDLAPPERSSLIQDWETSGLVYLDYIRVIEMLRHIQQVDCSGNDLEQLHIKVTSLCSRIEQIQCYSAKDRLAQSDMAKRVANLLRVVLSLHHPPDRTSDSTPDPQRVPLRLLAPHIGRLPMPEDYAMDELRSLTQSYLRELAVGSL
UniProt Q8WV22: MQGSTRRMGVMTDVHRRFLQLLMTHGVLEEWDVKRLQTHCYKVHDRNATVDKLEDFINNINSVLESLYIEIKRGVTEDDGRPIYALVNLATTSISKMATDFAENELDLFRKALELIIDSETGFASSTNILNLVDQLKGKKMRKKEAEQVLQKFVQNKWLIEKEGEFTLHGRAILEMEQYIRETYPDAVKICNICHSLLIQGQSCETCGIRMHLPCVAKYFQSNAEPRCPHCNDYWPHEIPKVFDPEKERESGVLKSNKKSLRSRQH
UniProt Q01804: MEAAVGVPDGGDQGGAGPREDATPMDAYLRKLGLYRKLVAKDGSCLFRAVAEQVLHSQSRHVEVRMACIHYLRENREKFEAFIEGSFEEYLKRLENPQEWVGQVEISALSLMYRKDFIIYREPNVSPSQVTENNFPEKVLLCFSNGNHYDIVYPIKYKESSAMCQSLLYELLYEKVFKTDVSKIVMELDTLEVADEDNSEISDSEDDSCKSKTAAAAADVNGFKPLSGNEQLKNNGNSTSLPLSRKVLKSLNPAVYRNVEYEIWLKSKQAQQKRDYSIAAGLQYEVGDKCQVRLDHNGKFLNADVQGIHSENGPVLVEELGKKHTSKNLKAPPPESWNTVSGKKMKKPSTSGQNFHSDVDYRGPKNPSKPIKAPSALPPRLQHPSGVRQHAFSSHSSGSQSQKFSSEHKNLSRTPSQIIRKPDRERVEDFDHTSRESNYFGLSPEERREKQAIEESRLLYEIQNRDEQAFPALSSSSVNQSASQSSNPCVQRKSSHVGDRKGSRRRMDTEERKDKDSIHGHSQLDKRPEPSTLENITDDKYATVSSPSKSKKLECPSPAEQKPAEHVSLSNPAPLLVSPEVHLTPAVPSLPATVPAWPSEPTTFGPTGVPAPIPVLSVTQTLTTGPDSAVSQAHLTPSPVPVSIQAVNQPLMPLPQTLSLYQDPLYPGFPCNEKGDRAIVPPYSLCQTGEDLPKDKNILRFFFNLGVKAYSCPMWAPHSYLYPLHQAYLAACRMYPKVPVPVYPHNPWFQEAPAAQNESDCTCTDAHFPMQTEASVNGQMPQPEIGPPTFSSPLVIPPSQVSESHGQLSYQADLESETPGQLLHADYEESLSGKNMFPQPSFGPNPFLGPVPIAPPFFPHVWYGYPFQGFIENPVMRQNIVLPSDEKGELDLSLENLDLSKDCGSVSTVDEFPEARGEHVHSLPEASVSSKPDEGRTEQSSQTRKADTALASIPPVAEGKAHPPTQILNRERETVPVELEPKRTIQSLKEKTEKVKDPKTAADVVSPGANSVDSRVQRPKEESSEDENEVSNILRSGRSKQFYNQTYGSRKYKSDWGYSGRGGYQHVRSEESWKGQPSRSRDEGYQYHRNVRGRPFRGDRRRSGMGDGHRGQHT
UniProt Q9NXX6: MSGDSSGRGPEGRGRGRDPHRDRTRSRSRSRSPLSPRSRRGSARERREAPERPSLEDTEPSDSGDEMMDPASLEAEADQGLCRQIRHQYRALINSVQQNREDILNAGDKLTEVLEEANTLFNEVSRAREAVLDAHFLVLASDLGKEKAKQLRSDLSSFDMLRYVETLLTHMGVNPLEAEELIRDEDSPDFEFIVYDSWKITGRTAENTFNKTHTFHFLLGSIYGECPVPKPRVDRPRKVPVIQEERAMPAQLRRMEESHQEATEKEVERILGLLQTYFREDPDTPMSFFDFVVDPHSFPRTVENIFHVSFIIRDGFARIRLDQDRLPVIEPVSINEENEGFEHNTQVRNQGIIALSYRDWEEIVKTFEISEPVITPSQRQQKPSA
UniProt Q96MF7: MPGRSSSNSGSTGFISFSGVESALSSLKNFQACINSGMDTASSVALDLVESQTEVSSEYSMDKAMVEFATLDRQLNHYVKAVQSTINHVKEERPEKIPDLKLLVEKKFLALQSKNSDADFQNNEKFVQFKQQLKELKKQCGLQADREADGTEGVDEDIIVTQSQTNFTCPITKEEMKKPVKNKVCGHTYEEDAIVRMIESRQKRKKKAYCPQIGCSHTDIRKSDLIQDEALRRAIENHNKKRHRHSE
UniProt Q9Y530: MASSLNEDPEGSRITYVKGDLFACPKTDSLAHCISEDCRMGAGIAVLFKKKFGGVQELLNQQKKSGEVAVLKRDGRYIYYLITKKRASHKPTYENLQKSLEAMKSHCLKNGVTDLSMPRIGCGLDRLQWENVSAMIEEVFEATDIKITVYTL
UniProt Q969T7: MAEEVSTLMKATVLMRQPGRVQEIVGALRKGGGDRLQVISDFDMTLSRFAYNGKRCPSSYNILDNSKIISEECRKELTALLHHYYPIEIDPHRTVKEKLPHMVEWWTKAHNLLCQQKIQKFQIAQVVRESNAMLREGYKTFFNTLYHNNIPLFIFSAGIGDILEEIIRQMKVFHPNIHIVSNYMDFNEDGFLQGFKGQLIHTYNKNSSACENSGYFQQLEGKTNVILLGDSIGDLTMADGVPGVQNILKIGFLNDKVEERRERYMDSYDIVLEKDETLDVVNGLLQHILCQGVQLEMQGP
UniProt Q8TEM1: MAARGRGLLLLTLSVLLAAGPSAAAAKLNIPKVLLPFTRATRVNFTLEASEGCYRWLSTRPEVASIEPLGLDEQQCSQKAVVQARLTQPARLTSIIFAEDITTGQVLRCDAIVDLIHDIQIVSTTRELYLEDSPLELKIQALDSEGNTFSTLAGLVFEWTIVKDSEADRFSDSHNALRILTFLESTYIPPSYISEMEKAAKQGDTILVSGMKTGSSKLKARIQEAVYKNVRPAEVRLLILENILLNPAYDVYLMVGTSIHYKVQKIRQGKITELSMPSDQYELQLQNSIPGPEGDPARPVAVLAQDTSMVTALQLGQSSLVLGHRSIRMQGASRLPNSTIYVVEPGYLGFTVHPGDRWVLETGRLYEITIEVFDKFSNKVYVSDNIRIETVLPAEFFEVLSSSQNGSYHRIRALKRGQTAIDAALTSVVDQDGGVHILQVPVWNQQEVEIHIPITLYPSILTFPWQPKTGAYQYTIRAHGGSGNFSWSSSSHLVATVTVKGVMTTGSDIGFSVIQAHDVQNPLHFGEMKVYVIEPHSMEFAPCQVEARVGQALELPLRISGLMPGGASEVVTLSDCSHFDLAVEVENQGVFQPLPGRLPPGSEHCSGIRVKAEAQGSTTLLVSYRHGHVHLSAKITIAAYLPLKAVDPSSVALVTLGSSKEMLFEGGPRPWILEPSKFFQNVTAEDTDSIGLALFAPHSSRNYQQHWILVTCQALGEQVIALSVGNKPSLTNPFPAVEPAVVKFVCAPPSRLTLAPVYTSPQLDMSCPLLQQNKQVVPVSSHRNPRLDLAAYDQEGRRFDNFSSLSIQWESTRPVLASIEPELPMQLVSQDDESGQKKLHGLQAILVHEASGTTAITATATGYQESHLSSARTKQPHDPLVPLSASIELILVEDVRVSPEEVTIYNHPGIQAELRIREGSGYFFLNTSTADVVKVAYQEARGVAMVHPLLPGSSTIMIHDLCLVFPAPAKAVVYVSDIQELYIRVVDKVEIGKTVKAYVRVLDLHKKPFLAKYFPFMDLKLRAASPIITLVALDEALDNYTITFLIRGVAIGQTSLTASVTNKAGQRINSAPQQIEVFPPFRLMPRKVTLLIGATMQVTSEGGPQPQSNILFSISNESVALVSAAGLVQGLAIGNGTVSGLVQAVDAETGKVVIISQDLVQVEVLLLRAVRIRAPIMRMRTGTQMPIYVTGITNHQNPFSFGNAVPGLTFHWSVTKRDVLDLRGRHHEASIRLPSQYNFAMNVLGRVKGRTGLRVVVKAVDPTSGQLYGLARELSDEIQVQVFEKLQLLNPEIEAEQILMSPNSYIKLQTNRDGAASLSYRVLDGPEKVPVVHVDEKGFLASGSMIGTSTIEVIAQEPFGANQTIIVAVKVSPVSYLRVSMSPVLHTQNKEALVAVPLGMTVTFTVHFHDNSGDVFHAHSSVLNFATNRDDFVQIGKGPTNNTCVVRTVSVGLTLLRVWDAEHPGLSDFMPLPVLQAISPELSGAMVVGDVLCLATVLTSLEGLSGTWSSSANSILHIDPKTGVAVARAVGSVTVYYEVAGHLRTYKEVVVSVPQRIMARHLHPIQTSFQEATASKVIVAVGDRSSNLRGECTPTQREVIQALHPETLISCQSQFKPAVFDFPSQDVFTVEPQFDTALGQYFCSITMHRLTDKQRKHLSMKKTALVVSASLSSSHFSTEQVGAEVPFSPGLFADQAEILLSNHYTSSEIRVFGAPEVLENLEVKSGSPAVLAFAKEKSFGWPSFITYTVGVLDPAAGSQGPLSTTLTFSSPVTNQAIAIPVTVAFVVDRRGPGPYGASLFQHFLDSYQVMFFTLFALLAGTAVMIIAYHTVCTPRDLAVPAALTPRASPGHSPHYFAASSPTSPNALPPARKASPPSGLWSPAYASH
UniProt Q9H6K4: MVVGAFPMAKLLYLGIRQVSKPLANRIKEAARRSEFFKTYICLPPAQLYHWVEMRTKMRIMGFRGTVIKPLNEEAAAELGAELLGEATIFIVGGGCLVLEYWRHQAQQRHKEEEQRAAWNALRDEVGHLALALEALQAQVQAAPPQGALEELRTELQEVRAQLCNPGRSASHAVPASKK
UniProt Q99935: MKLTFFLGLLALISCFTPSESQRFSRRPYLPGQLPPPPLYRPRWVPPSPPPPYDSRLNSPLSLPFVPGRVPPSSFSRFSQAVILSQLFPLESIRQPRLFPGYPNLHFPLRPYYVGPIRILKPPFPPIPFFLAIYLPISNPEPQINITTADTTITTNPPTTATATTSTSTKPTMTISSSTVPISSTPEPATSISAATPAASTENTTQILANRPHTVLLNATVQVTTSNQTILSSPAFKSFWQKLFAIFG

How the values were obtained:
Test in all cases: log2 fold change, soluble protein after heating vs DMSO (PISA); higher = thermal stabilisation; K562 cells, 10 uM, 30 min; active = over 0.2 and 3.5 SD of the protein, either way, in both replicates (recomputed)
[1] = compound: COC1=CC=C(C=C1)CN2C=CC3=C2C=C(C=C3)C(=O)NO
In short: (§1)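 For each measurement, 10 μM compound was applied for 30 min to K562 cells at 2×10^6 cells/mL. Aliquots were heated for 3 min across 48°C-58°C, pooled, and extracted in PBS with 0.5% NP-40 at 4°C; the supernatant after 21,000xg for 90 min was soluble protein. This was quantified by TMTpro 16plex LC-MS/MS with channel sums equalised, and thermal stability was reported relative to control samples from duplicates, on a log2 fold-change scale.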

filanesib = compound: CON(C)C(=O)N1N=C(c2cc(F)ccc2F)S[C@@]1(CCCN)c1ccccc1 [filanesib]
In short: as §1

zotarolimus = compound: CO[C@H]1C[C@@H]2CC[C@@H](C)[C@@](O)(O2)C(=O)C(=O)N2CCCC[C@H]2C(=O)O[C@H]([C@H](C)C[C@@H]2CC[C@H](n3cnnn3)[C@H](OC)C2)CC(=O)[C@H](C)/C=C(\C)[C@@H](O)[C@@H](OC)C(=O)[C@H](C)C[C@H](C)/C=C/C=C/C=C/1C [zotarolimus]
In short: as §1

idasanutlin = compound: COc1cc(C(=O)O)ccc1NC(=O)[C@@H]1N[C@@H](CC(C)(C)C)[C@](C#N)(c2ccc(Cl)cc2F)[C@H]1c1cccc(Cl)c1F [idasanutlin]
In short: as §1

alisertib = compound: COc1cc(Nc2ncc3c(n2)-c2ccc(Cl)cc2C(c2c(F)cccc2OC)=NC3)ccc1C(=O)O [alisertib]
In short: as §1

[2] = compound: COc1cc2nc(-c3cc(F)ccc3O)nc(N[C@@H]3CNC[C@H]3C(C)(C)O)c2cc1OC
In short: as §1

gefitinib = compound: COc1cc2ncnc(Nc3ccc(F)c(Cl)c3)c2cc1OCCCN1CCOCC1 [gefitinib]
In short: as §1

[3] = compound: COc1cccc2cc(-c3nc([C@H]4CC[C@H](C(=O)O)CC4)n4ncnc(N)c34)[nH]c12
In short: as §1

lapatinib = compound: CS(=O)(=O)CCNCc1ccc(-c2ccc3ncnc(Nc4ccc(OCc5cccc(F)c5)c(Cl)c4)c3c2)o1 [lapatinib]
In short: as §1

pictilisib = compound: CS(=O)(=O)N1CCN(Cc2cc3nc(-c4cccc5[nH]ncc45)nc(N4CCOCC4)c3s2)CC1 [pictilisib]
In short: as §1

[4] = compound: CS(=O)(=O)c1ccc(-c2cnc(N)c(C(=O)Nc3ccccc3)n2)cc1
In short: as §1

crizotinib = compound: C[C@@H](Oc1cc(-c2cnn(C3CCNCC3)c2)cnc1N)c1c(Cl)ccc(F)c1Cl [crizotinib]
In short: as §1

[5] = compound: C[C@@H]1COCCN1C2=NC(=NC(=C2)C3(CC3)S(=O)(=O)C)C4=C5C=CNC5=CC=C4
In short: as §1

[6] = compound: C[C@H](C1=CC=C(C=C1)C(=O)NC2=C3C=CNC3=NC=C2)N
In short: as §1

gandotinib = compound: Cc1cc(Nc2cc(CN3CCOCC3)c3nc(C)c(Cc4ccc(Cl)cc4F)n3n2)n[nH]1 [gandotinib]
In short: as §1

[7] = compound: Cc1cc(SCc2sc(-c3ccc(C(F)(F)F)cc3)nc2C)ccc1OCC(=O)O
In short: as §1

doramapimod = compound: Cc1ccc(-n2nc(C(C)(C)C)cc2NC(=O)Nc2ccc(OCCN3CCOCC3)c3ccccc23)cc1 [doramapimod]
In short: as §1

ispinesib = compound: Cc1ccc(C(=O)N(CCCN)[C@@H](c2nc3cc(Cl)ccc3c(=O)n2Cc2ccccc2)C(C)C)cc1 [ispinesib]
In short: as §1

duvelisib = compound: C[C@H](Nc1ncnc2nc[nH]c12)c1cc2cccc(Cl)c2c(=O)n1-c1ccccc1 [duvelisib]
In short: as §1

tozasertib = compound: Cc1cc(Nc2cc(N3CCN(C)CC3)nc(Sc3ccc(NC(=O)C4CC4)cc3)n2)n[nH]1 [tozasertib]
In short: as §1

Measured: log2 fold change

NUP98 (UniProt P52948)
inactive: [1] -0.003 | filanesib 0.045 | zotarolimus 0.009 | idasanutlin 0.061 | alisertib 0.007 | [2] 0.047 | gefitinib 0.026 | [3] -0.057 | lapatinib 0.02 | pictilisib 0.027 | [4] 0.031 | crizotinib -0.02 | [5] 0.007 | [6] -0.009 | gandotinib -0.044 | [7] 0.1 | doramapimod 0.022 | ispinesib 0.001

NSMCE1 (UniProt Q8WV22)
inactive: [1] -0.019 | filanesib -0.003 | zotarolimus 0.001 | idasanutlin -0.121 | alisertib -0.059 | [2] 0.125 | gefitinib 0.465 | [3] 0.074 | lapatinib -0.023 | [4] -0.008 | crizotinib 0.054 | [5] -0.115 | [6] 0.074 | duvelisib 0.127 | tozasertib -0.006 | [7] -0.153 | doramapimod 0.006 | ispinesib -0.072

OTUD4 (UniProt Q01804)
inactive: [1] -0.122 | filanesib 0.182 | zotarolimus 0.022 | idasanutlin 0.063 | alisertib -0.106 | [2] -0.062 | gefitinib 0.039 | [3] 0.013 | lapatinib 0.095 | pictilisib -0.025 | [4] 0.018 | crizotinib -0.001 | [5] -0.094 | [6] 0.106 | gandotinib 0.059 | [7] -0.001 | doramapimod 0.052 | ispinesib -0.034

NSMCE4A (UniProt Q9NXX6)
active: [3] -0.437
inactive: [1] 0.033 | filanesib 0.049 | zotarolimus 0.019 | idasanutlin 0.017 | alisertib -0.087 | [2] -0.018 | gefitinib 0.181 | lapatinib 0.034 | pictilisib -0.011 | [4] 0.038 | crizotinib 0.072 | [5] -0.055 | [6] -0.009 | gandotinib 0.144 | [7] 0.054 | doramapimod 0.047 | ispinesib 0.062

NSMCE2 (UniProt Q96MF7)
active: pictilisib -0.233
inactive: [1] -0.029 | filanesib 0.045 | zotarolimus 0.018 | idasanutlin 0.027 | alisertib -0.076 | [2] 0.018 | gefitinib -0.009 | [3] -0.018 | lapatinib 0.023 | [4] 0.001 | crizotinib 0.051 | [5] -0.038 | [6] -0.024 | gandotinib -0.131 | [7] -0.042 | doramapimod 0.004 | ispinesib 0.044

OSGEPL1 (UniProt Q9H4B0)
inactive: [1] -0.257 | filanesib 0.161 | zotarolimus -0.014 | idasanutlin -0.074 | [2] 0.272 | lapatinib 0.008 | pictilisib -0.009 | [4] 0.136 | crizotinib -0.098 | [6] 0.096 | duvelisib 0.111 | gandotinib 0.227 | [7] -0.047 | doramapimod 0.039

OARD1 (UniProt Q9Y530)
inactive: [1] 0.074 | filanesib 0.077 | zotarolimus -0.032 | idasanutlin -0.047 | alisertib -0.078 | [2] 0.098 | gefitinib 0.041 | [3] -0.123 | lapatinib 0.001 | [4] 0.025 | crizotinib 0.022 | [5] 0.007 | [6] 0.061 | duvelisib -0.002 | tozasertib 0.014 | [7] 0.021 | doramapimod 0.049 | ispinesib 0.034

NTMT1 (UniProt Q9BV86)
active: [1] -0.455
inactive: filanesib -0.055 | zotarolimus 0.091 | idasanutlin -0.121 | alisertib -0.043 | [2] 0.085 | gefitinib 0.062 | [3] -0.027 | lapatinib -0.001 | pictilisib 0.092 | [4] 0.128 | crizotinib 0.039 | [5] 0.074 | [6] -0.029 | gandotinib 0.093 | [7] 0.021 | doramapimod 0.071 | ispinesib 0.02

NT5C3B (UniProt Q969T7)
inactive: [1] -0.024 | filanesib -0.245 | zotarolimus -0.006 | idasanutlin 0.06 | alisertib -0.109 | [2] 0.198 | gefitinib 0.061 | [3] 0.035 | lapatinib -0.031 | pictilisib 0.102 | [4] -0.11 | crizotinib -0.035 | [6] 0.005 | duvelisib -0.037 | gandotinib 0.025 | tozasertib 0.098 | [7] -0.009 | doramapimod 0.035 | ispinesib 0.055

NUP210 (UniProt Q8TEM1)
inactive: [1] -0.099 | filanesib -0.08 | zotarolimus 0.002 | idasanutlin 0.019 | alisertib -0.045 | gefitinib -0.053 | [3] 0.045 | lapatinib -0.089 | pictilisib -0.114 | [4] -0.039 | [5] 0.005 | [6] -0.006 | gandotinib -0.083 | [7] 0.047 | doramapimod 0.002
active: [2] -0.319 | crizotinib -0.235 | ispinesib -0.351

OPA3 (UniProt Q9H6K4)
inactive: [1] 0.051 | filanesib 0.005 | zotarolimus -0.064 | idasanutlin 0.017 | alisertib -0.059 | [2] -0.059 | gefitinib 0.255 | [3] 0.026 | lapatinib -0.01 | [4] 0.025 | crizotinib -0.039 | [5] 0.049 | [6] -0.035 | duvelisib 0.038 | tozasertib -0.03 | [7] -0.076 | doramapimod -0.036 | ispinesib -0.139

PABPC1 (UniProt H0YAR2)
inactive: [1] 0.296 | filanesib -0.042 | alisertib 0.105 | [3] -0.051 | [4] -0.024 | crizotinib -0.022 | doramapimod -0.028 | ispinesib 0.204

OPRPN (UniProt Q99935)
inactive: alisertib -0.21 | [3] 0.119

P4HB (UniProt H7BZ94)
inactive: filanesib 0.168 | [4] -0.398

OAF (UniProt Q86UD1)
active: [3] 0.539
inactive: filanesib -0.017 | alisertib -0.239 | [4] -0.112 | ispinesib 0.014

ORC2 (UniProt Q13416)
inactive: [1] -0.289 | filanesib -0.105 | alisertib 0.062 | [2] -0.039 | gefitinib 0.112 | [3] 0.02 | lapatinib 0.023 | pictilisib -0.058 | [4] 0.035 | crizotinib -0.018 | [5] 0.09 | gandotinib -0.156 | tozasertib -0.089 | doramapimod 0.314 | ispinesib -0.155
